Conditions in all cases: remark: other sources report otherwise
The target in assay [1] is T1, human Cdc45 protein, C-terminally His6-tagged (hCdc45-His6) (human), O75419.
T1 chain: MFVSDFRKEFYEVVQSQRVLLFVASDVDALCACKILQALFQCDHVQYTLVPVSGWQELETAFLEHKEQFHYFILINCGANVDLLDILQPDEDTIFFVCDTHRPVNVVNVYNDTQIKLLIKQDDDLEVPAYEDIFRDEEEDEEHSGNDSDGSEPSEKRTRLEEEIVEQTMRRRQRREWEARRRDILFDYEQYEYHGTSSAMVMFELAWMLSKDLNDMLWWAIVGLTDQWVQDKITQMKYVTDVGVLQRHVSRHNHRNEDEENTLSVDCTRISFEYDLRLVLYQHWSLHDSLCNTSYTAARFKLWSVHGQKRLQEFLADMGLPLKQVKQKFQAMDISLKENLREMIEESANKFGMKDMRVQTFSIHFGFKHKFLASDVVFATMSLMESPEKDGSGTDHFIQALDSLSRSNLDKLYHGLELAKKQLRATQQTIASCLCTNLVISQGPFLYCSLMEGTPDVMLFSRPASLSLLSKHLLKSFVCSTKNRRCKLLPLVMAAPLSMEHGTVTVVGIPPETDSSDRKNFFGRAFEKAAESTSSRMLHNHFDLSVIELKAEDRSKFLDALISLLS
The experiment in a line: dynamic light scattering; purified protein in solution; conditions not given; both purified.

Assay [2] has as its target T1, human Cdc45 protein, C-terminally …. The experiment in a line: SEC; analytical gel filtration (Supplementary Figure S1); conditions not told for this run; both purified. In general terms: SEC sorts molecules by how far they enter the pores of the column.
Assay [3] has the same target. The experiment in a line: small-angle X-ray scattering (SAXS); protein in solution, 1.3 to 5.4 mg/ml, 20 mM HEPES-KOH pH 7.5, 150 mM KCl, 1 mM DTT, 1 mM MgCl2, 5% glycerol; mass from forward scattering against bovine serum albumin, Vc and Porod volume; both purified.
Assay [4] has the same target. The experiment in a line: atomic force microscopy (volume analysis); protein diluted to 10 nM in 20 mM HEPES pH 7.5, 25 mM sodium acetate, 10 mM magnesium acetate, deposited on mica and dried; volumes translated into molecular weight by a linear calibration; both purified.

These are yes or no findings as the source states them, for the method shown. Tags and fused reporters may be left off the sequences shown.

B1: human Cdc45 protein, C-terminally His6-tagged (hCdc45-His6), O75419 1-566 (protein)
chain: T1 chain
Regarding B1, the binding entry in assay [1] is reported as “no binding”; in assay [2] it was “no binding”; in assay [3], “no binding (tested: 1.3 to 5.4 mg/ml)”; in assay [4] it was “no binding (tested: 10 nM)”.

These data come from paper PMC3936751.
